From the supplement of paper PMC7125110 come the findings set out here.

To fix the notation:
B1: glmS ribozyme (parent)
chain: AUAAAAGCGCCAGAACUACAGAAAUGUAGUUGACGAGGAGGAGGUUUAUCGAAUUUUCGGCGGAUGCCUCCAAA

± gives the standard error. Many entries were measured with a wide error. A value given as a limit tells only on which side of the number the result lay.

In one data set the parent is B1. Kind of data set: KM; higher = weaker cofactor use; RNA array. The following applies: with glucosamine-6-phosphate. The gist of the method: (§1)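 The measurements used barcoded ribozyme variants on sequenced MiSeq chips, transcribed in situ by E. coli RNA polymerase and tracked at 37 °C with a hybridised Cy3 probe. Glucosamine-6-phosphate, 40 μM to 10 mM in HEPES/KCl/Mg(OAc)2 buffer, was flowed in while tiles were imaged over ~14 h. Baseline-normalised signals, also normalised to non-cleaving reference variants, gave per-tile medians that were fit to one- or two-exponential decays for kobs. kcat and KM resulted from weighted Michaelis–Menten fits across concentrations.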
As to A14C C58G, the KM was 5710 ± 4500 µM.
For A39U C58G, the KM was 9290 ± 520 µM.
On the same count and under the same terms, with A15G C67G the figure was 2600 ± 330 µM; with A12U G29A A52U, 5430 ± 2900 µM; with A42U U69G, 388 ± 270 µM.
On the same count and under the same terms, with A12U U46C the figure was 2700 ± 520 µM; with A42G U55A, 2030 ± 1900 µM.
With G32C U47A, the KM was determined as 1450 ± 320 µM.
The same measure, in the same setting: with A14G U46A the figure was 4160 ± 2300 µM.
For the variant U31A G32C, the KM was found to be 1950 ± 290 µM.
Still for that read-out and setting: with U31G U54G the figure was 2990 ± 2300 µM; with A48C U54C, 2490 ± 1300 µM; with A52U A64G, 2510 ± 1700 µM.
Still for that read-out and setting: with C19A G59U the figure was 27000 ± 9200 µM.
Still for that read-out and setting: for G37U A64G the value was 801 ± 760 µM; for G51A U54A, 123 ± 100 µM; for G9U C71U, 403 ± 220 µM.
With G32A G59A, the KM came out at 1330 ± 1200 µM.
Same read-out and setting: for A12C A14C the value was 6190 ± 2800 µM; for A12G G63C, 438 ± 310 µM.
Same read-out and setting: with G44A U54G the figure was 936 ± 680 µM.
Take A15U A39C: the KM was found to be 1960 ± 980 µM.
The same measure, in the same setting: for U55A C71U the value was 470 ± 440 µM.
Still for that read-out and setting: for U55A C71A the value was 1420 ± 1200 µM.
On the same count and under the same terms, with G32C A42G the figure was 10600 ± 3200 µM.
Consider A42U C67A, for which the KM worked out at 1400 ± 460 µM.
For the variant U30A U55A C71U, the Michaelis constant (KM) is 1100 ± 720 µM.
Still for that read-out and setting: with C16U G29U the figure was 1560 ± 910 µM; with C67A C71A, 1150 ± 700 µM; with A33C U56A, 10000 ± 6600 µM.
The same measure, in the same setting: with G37C U54A U69G the figure was 146 ± 130 µM; with C16G A64U, 361 ± 210 µM.
The same measure, in the same setting: with A12G A42C the figure was 26 ± 24 µM; with C11U A14U, 2130 ± 810 µM; with C58A C61A, 31.4 ± 21 µM.
Consider A64U C67A, for which the KM was found to be 1000 ± 750 µM.
Still for that read-out and setting: for A14U G32A the value was 3720 ± 1400 µM; for A39C U56G, 4460 ± 1800 µM; for C68G U69C, 97.5 ± 54 µM.
On the same count and under the same terms, with G40U U45A the figure was 1030 ± 420 µM.
For the variant C8A C61U G66A, the KM is 17.8 ± 11 µM.
On the same count and under the same terms, with A6U A52G the figure was 2490 ± 2400 µM.
The same measure, in the same setting: for G29U G59A the value was 2710 ± 2300 µM; for U56C G66A, 4140 ± 2400 µM; for A39U A64G, 3390 ± 1700 µM.
On the same count and under the same terms, for A12C A15U the value was 1430 ± 600 µM.
On to U30G U56A, for which the Michaelis constant (KM) stood at 2730 ± 850 µM.
The same measure, in the same setting: for A12U G41U the value was 232 ± 190 µM; for C67G C70U, 1750 ± 88 µM.
Same read-out and setting: with U47C C71G the figure was 908 ± 460 µM.
In the case of U30C C70G, the KM is 28 ± 24 µM.
The same measure, in the same setting: for G40C G66A the value was 1760 ± 1200 µM; for A15U U56A, 3510 ± 2600 µM; for A12C U55G, 4590 ± 4500 µM.
In the case of G9A G13C U30G G63U U69G, the KM came to 50.4 ± 49 µM.
On the same count and under the same terms, for U46A U69C the value was 1590 ± 770 µM; for A53U U56C, 7740 ± 5900 µM.

Variants of B1 are the subject of the next data set. Briefly: kcat; higher = faster cleavage; RNA array. The following applies: with glucosamine-6-phosphate. The gist of the method: as §1
As for A39U C58G, the kcat came out at 0.000106 ± 3.3e-06 s⁻¹.
Same read-out and setting: with A42G U55A the figure was 0.0495 ± 0.04 s⁻¹; with A53U U69C, 0.00307 ± 0.0027 s⁻¹; with G37C U54G, 5.61e-05 ± 4e-05 s⁻¹.
On the same count and under the same terms, with A14U C61A the figure was 2.96e-05 ± 2.1e-05 s⁻¹.
Same read-out and setting: with C58G A64G U65A G66U C67G U69C the figure was 2.61e-05 ± 2e-05 s⁻¹.
For G43A U47C, the kcat stood at 1.32e-05 ± 6.8e-06 s⁻¹.
Turning to U31G U54G, the kcat is 0.0117 ± 0.0073 s⁻¹.
Same read-out and setting: with G41A A64U the figure was 1.18e-05 ± 5.9e-06 s⁻¹; with A12G G63C, < 1e-05 s⁻¹; with U30G A36G C71G, 1.69e-05 ± 3.9e-06 s⁻¹.
Still for that read-out and setting: with G60C C70A the figure was < 1e-05 s⁻¹; with A15U A39C, 0.00112 ± 0.00025 s⁻¹.
Still for that read-out and setting: with U55A C71U the figure was 0.0122 ± 0.0081 s⁻¹; with U55A C71A, 0.0116 ± 0.0077 s⁻¹.
Take C50G A64G: the turnover number (kcat) stood at 3.89e-05 ± 2.5e-05 s⁻¹.
Same read-out and setting: with G40U U45A the figure was 0.0022 ± 0.00057 s⁻¹; with C11G A14C U69A, 6.08e-05 ± 6e-05 s⁻¹.
On the same count and under the same terms, with U30G U56A the figure was 0.00811 ± 0.0019 s⁻¹; with A15U U56A, 0.0067 ± 0.0038 s⁻¹.
Still for that read-out and setting: with A12C U55G the figure was 0.0339 ± 0.025 s⁻¹; with G62U C67G C68U, 1.17e-05 ± 4.6e-06 s⁻¹.
Turning to A53U U56C, the kcat turned out to be 0.00641 ± 0.0039 s⁻¹.

Variants of B1 are the subject of a further data set. Kind of data set: self-cleavage kobs at 40 uM GlcN6P; higher = faster cleavage; RNA array. The following applies: with glucosamine-6-phosphate. The gist of the method: as §1
For the variant A15G C67G, the “self-cleavage kobs at 40 uM GlcN6P” value turned out to be 1.32e-05 ± 7.8e-06 s⁻¹.
Same read-out and setting: for G44A U54G the value was 1.33e-05 ± 1e-05 s⁻¹; for C50G A64G, 2.4e-05 ± 1.4e-05 s⁻¹; for C11U A14U, 1.77e-05 ± 1.7e-05 s⁻¹.
Regarding C11G A14C U69A, the “self-cleavage kobs at 40 uM GlcN6P” value stood at 3.3e-05 ± 2e-05 s⁻¹.
The same measure, in the same setting: for U30C C70G the value was 2.69e-05 ± 1.4e-05 s⁻¹.

In the next data set the parent is B1. Kind of data set: self-cleavage kobs at 160 uM GlcN6P; higher = faster cleavage; RNA array. The following applies: with glucosamine-6-phosphate. The method, boiled down: as §1
For the variant A12U G29A A52U, the “self-cleavage kobs at 160 uM GlcN6P” value turned out to be 2.54e-05 ± 2.1e-05 s⁻¹.
Still for that read-out and setting: with C67A C71A the figure was 2.92e-05 ± 2e-05 s⁻¹; with C67G C70U, 1.23e-05 ± 1.2e-05 s⁻¹; with U47C C71G, 2.38e-05 ± 1.8e-05 s⁻¹.

Variants of B1 are the subject of the next data set. Briefly: self-cleavage kobs at 2500 uM GlcN6P; higher = faster cleavage; RNA array. The following applies: with glucosamine-6-phosphate. The gist of the method: as §1
As for A53U U69C, the “self-cleavage kobs at 2500 uM GlcN6P” value was 0.001 ± 0.00052 s⁻¹.
The same measure, in the same setting: for C58G A64G U65A G66U C67G U69C the value was 1.71e-05 ± 1.2e-05 s⁻¹.
Still for that read-out and setting: with C50G A64G the figure was 0.000664 ± 0.00033 s⁻¹; with A33C U56A, 2.95e-05 ± 1.6e-05 s⁻¹; with A64U C67A, 1.45e-05 ± 1.2e-05 s⁻¹.
For the variant C68G U69C, the “self-cleavage kobs at 2500 uM GlcN6P” value was found to be 1.67e-05 ± 1.7e-05 s⁻¹.

The next data set covers variants of B1. Briefly: self-cleavage kobs at 640 uM GlcN6P; higher = faster cleavage; RNA array. The following applies: with glucosamine-6-phosphate. The gist of the method: as §1
Regarding G37C U54G, the “self-cleavage kobs at 640 uM GlcN6P” value worked out at 4.06e-05 ± 2.1e-05 s⁻¹.
For the variant G32C A42G, the “self-cleavage kobs at 640 uM GlcN6P” value stood at 2.39e-05 ± 2.1e-05 s⁻¹.
On the same count and under the same terms, with G37C U54A U69G the figure was 2.76e-05 ± 2.2e-05 s⁻¹.

Variants of B1 are the subject of the next data set. Briefly: self-cleavage kobs at 10000 uM GlcN6P; higher = faster cleavage; RNA array. The following applies: with glucosamine-6-phosphate. The method, boiled down:
as §1
Turning to G32A G59A, the “self-cleavage kobs at 10000 uM GlcN6P” value amounted to 1.55e-05 ± 1.2e-05 s⁻¹.

For orientation: KM means the concentration of substrate that gives half-maximal velocity. Usually kcat stands for the maximal rate divided by the concentration of active sites.
